The supplement of paper PMC12595434, “Development of retinoid nuclear receptor pathway antagonists through targeting aldehyde dehydrogenase 1A3” (iScience, 2025)
The list shows a part of the results. The data scatter; read single values as rough.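 Tm was set to 64 °C where no melting was found, and many curves are irregular.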

The chains behind the UniProt entries cited, without tags or fusion partners. Where a name states a change or a piece, a line headed by the entry shows the natural chain unless it says otherwise.
UniProt P51149, whole entry: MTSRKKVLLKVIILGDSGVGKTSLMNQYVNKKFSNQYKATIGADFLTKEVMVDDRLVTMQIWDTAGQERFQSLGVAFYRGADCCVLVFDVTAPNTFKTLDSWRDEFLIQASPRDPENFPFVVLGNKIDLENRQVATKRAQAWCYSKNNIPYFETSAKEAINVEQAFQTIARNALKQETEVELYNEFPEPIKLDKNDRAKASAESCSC
UniProt P50897: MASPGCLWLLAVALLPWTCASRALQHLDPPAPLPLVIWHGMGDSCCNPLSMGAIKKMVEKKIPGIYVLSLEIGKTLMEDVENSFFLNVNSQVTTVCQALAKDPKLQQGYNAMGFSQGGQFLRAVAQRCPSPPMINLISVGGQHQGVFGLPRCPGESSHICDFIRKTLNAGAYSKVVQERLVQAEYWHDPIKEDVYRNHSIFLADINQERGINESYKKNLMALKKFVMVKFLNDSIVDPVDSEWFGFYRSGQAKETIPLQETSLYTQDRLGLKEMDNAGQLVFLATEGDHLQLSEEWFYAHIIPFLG
UniProt P40938, whole entry: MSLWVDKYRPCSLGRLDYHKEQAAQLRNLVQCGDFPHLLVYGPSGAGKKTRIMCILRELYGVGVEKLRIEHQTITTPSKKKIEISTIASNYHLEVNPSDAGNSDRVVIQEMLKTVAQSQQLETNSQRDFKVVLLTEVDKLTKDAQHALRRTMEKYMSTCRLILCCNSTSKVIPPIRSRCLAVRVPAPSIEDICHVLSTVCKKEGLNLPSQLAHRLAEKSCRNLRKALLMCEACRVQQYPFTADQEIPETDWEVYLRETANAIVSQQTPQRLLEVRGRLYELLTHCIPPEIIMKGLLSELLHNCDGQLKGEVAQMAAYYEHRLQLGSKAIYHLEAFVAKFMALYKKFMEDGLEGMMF
UniProt P43897: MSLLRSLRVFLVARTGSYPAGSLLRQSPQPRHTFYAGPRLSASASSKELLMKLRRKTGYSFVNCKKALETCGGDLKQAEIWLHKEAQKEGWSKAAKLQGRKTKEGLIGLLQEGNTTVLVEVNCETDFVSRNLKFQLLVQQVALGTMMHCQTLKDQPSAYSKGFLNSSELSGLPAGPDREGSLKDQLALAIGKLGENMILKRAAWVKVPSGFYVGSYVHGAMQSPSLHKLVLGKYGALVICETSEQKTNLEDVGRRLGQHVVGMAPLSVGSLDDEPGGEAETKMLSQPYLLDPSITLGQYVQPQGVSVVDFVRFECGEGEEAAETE
UniProt P49458: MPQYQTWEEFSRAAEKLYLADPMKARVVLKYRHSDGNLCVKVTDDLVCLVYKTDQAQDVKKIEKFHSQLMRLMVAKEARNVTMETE
UniProt P41208: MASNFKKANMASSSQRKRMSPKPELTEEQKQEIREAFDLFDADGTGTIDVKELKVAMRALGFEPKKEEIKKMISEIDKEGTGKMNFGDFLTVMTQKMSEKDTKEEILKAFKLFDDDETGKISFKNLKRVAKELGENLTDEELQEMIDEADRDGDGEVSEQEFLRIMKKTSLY
UniProt P49643: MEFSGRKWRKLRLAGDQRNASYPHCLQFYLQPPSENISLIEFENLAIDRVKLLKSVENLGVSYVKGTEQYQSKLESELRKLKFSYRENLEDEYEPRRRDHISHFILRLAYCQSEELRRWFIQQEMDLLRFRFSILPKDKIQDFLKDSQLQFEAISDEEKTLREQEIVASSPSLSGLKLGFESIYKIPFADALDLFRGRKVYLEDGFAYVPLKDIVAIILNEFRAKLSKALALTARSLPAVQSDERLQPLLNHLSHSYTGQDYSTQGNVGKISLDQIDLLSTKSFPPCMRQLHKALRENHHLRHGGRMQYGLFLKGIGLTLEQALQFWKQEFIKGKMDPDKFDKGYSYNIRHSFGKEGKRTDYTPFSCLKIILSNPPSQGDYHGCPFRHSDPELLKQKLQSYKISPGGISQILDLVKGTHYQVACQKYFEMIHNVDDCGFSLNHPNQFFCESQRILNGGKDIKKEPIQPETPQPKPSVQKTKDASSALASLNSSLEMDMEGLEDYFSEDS
UniProt P41091, whole entry: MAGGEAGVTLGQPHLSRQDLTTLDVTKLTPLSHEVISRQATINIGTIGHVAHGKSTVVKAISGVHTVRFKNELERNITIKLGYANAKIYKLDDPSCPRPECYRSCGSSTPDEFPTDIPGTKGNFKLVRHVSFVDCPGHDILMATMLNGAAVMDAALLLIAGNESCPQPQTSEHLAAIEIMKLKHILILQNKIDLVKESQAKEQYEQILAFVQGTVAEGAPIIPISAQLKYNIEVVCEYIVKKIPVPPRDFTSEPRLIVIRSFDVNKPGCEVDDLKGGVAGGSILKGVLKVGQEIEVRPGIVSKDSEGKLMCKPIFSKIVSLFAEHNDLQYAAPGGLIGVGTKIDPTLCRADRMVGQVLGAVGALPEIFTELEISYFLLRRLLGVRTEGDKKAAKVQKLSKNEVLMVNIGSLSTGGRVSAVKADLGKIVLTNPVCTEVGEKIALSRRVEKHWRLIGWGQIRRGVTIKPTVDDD
UniProt P49593: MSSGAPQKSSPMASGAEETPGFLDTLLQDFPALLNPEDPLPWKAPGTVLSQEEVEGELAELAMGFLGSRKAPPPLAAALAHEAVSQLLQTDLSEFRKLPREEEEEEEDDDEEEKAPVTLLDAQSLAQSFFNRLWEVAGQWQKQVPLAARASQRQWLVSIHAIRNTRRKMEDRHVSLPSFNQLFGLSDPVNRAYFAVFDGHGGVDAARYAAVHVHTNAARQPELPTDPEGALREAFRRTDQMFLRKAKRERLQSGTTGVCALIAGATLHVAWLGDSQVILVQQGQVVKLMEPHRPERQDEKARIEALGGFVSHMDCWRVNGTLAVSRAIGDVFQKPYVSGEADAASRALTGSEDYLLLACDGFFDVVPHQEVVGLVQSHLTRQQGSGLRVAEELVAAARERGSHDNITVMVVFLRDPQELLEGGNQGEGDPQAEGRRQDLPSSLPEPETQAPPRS
UniProt P48163: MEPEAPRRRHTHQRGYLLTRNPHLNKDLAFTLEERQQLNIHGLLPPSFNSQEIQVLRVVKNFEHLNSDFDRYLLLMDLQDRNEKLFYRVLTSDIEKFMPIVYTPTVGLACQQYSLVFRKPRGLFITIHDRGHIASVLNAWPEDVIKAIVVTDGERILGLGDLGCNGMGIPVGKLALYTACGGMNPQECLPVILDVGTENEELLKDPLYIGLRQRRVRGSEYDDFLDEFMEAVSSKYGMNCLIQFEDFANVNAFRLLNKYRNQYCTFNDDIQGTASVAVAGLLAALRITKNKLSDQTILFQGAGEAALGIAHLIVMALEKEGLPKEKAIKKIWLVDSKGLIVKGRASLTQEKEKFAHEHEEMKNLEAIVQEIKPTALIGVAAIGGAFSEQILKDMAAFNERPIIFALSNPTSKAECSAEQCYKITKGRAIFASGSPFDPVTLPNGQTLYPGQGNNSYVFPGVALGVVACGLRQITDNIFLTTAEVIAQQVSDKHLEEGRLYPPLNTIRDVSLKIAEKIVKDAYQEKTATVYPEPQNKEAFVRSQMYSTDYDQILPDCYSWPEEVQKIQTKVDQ
UniProt P46976: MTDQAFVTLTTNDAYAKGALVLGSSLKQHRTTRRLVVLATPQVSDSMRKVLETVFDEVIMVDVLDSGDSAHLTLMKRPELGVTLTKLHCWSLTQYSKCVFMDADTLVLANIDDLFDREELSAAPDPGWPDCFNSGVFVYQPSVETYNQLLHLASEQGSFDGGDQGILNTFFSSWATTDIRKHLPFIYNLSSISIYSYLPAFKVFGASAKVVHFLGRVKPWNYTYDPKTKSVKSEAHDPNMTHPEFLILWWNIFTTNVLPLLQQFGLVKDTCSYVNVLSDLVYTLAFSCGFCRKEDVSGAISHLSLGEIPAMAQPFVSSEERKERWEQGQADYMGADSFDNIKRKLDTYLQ
UniProt P51452: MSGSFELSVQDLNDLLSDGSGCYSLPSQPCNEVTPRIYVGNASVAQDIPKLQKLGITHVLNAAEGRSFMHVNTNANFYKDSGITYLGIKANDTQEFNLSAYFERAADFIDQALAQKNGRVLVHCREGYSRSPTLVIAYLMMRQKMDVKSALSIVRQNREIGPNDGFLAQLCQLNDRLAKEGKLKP
UniProt P48200: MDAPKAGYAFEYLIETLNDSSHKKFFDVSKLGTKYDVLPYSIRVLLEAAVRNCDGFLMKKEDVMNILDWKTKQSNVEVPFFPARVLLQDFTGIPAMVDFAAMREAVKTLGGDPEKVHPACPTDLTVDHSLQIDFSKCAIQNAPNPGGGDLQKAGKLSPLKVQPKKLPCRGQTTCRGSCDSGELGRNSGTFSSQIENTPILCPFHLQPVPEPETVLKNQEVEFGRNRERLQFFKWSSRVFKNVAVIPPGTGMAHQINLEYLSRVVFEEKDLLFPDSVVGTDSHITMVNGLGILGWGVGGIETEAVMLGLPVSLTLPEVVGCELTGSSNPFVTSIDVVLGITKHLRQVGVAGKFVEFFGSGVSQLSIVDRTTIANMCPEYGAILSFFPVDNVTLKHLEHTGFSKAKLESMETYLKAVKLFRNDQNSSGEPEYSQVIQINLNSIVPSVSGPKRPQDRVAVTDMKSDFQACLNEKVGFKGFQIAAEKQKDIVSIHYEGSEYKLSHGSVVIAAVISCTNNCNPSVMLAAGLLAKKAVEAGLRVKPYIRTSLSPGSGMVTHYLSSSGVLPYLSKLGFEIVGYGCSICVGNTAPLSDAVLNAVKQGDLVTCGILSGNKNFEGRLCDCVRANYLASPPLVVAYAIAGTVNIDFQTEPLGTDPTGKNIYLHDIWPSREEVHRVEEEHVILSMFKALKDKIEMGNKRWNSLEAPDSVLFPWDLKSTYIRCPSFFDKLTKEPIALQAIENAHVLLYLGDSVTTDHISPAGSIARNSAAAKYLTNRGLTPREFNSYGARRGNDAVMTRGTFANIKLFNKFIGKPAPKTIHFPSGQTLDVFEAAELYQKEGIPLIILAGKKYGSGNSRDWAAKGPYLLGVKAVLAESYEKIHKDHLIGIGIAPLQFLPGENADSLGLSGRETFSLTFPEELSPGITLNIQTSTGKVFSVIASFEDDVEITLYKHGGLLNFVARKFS
UniProt P43307: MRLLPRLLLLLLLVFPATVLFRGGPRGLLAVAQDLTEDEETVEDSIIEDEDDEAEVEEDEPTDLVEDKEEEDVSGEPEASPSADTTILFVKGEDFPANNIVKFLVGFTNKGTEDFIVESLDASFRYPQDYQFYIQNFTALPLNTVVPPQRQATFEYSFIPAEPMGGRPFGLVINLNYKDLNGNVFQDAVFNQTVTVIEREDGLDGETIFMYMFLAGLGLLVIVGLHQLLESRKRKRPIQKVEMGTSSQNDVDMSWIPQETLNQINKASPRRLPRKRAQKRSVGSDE
UniProt P42773: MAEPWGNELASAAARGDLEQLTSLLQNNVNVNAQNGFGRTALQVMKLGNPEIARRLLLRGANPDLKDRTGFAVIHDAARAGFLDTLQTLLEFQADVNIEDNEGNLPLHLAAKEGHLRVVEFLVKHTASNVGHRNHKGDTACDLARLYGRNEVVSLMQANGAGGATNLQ
UniProt P40855: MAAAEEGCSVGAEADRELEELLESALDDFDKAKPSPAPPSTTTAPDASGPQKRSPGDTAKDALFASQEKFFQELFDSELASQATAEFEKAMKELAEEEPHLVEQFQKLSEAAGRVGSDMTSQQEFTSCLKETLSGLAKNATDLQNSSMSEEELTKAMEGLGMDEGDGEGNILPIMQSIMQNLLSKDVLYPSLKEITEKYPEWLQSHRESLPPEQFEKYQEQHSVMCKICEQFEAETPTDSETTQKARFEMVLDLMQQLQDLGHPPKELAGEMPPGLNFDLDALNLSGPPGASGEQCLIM
UniProt P49773: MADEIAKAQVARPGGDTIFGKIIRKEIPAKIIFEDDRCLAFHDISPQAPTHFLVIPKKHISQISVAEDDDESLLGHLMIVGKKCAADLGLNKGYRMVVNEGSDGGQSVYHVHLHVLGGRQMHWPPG
UniProt P40937, whole entry: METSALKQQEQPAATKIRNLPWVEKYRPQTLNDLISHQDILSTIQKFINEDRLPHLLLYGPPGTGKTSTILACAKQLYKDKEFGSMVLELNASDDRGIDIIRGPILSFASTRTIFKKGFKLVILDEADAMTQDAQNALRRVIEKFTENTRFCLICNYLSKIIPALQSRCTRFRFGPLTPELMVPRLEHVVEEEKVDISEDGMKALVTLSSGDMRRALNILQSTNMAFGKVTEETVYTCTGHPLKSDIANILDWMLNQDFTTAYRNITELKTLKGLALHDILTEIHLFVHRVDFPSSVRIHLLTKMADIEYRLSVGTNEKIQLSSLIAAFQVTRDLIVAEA
UniProt P43034: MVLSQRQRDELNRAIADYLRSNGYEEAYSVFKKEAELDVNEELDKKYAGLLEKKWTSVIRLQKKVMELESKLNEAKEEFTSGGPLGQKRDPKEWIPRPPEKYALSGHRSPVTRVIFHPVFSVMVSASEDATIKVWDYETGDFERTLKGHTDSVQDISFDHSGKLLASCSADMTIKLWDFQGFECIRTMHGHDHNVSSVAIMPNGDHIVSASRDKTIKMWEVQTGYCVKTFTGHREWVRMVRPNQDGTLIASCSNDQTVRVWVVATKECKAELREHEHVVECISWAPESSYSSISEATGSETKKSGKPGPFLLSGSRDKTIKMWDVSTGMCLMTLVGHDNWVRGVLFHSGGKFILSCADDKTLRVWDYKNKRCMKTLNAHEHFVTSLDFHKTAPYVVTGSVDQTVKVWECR

Compound: CCc1cnccc1C(=O)Nc1cc2c(cc1F)NC(=O)CC2
Assay: melting temperature shift (DMSO Tm minus MBE1-treated Tm) in cellular thermal proteome profiling; higher = less thermal stabilization by MBE1 (negative = stabilized by MBE1)
Conditions: A375

Target | melting temperature shift (MBE1 concentration: 100 nM) | melting temperature shift (MBE1 concentration: 1 uM)
GCLC (UniProt P48506) | -0.607 °C | 0.0672 °C
PEX5 (UniProt P50542) | -0.952 °C | -0.5 °C
UQCRFS1 (UniProt P47985) | -1.53 °C | -1.17 °C
RAB7A (UniProt P51149) | -2.39 °C | -1.96 °C
MAPKAPK2 (UniProt P49137) | 0.171 °C | -0.0611 °C
UniProt P50548 | 0.983 °C | -0.446 °C
TSC2 (UniProt P49815) | -1 °C | -0.282 °C
MATR3 (UniProt P43243) | -0.0448 °C | -0.34 °C
TMED10 (UniProt P49755) | -0.104 °C | -0.22 °C
PPT1 (UniProt P50897) | -2.08 °C | -2.21 °C
DNM2 (UniProt P50570) | 0.415 °C | -0.0244 °C
PPOX (UniProt P50336) | 0.403 °C | 1.03 °C
MTHFS (UniProt P49914) | 0.403 °C | -0.0977 °C
CBX5 (UniProt P45973) | 0.995 °C | -0.672 °C
RFC3 (UniProt P40938) | -0.743 °C | -0.689 °C
RAB9A (UniProt P51151) | -1.99 °C | 0.812 °C
UniProt P50443 | -0.948 °C | -0.959 °C
CCT6A (UniProt P40227) | -0.984 °C | -0.96 °C
PIK3CA (UniProt P42336) | -0.95 °C | -0.39 °C
UniProt P47897 | -0.828 °C | -0.127 °C
UniProt P40306 | 0.302 °C | -0.94 °C
UniProt P42330 | 0.287 °C | -0.0611 °C
SLC1A4 (UniProt P43007) | -0.914 °C | -2.92 °C
HLCS (UniProt P50747) | 0.855 °C | 1.03 °C
UniProt P48029 | -2.06 °C | -1.14 °C
IDH2 (UniProt P48735) | 0.657 °C | 0.44 °C
TSFM (UniProt P43897) | -0.276 °C | -0.367 °C

Target | melting temperature shift (MBE1 concentration: 100 nM) | melting temperature shift (MBE1 concentration: 1 uM)
CDC34 (UniProt P49427) | -0.872 °C | -1.02 °C
SRP9 (UniProt P49458) | -0.771 °C | -0.126 °C
RPS5 (UniProt P46782) | -1.02 °C | 2.91 °C
HSPA9 (UniProt P38646) | -1.02 °C | -0.11 °C
SUOX (UniProt P51687) | -1.18 °C | -0.557 °C
CRAT (UniProt P43155) | -0.765 °C | -0.141 °C
ZFP36L2 (UniProt P47974) | -0.847 °C | -1.73 °C
CETN2 (UniProt P41208) | -10.3 °C | -5.27 °C
TUFM (UniProt P49411) | 0.434 °C | 0.293 °C
PRIM2 (UniProt P49643) | 0.376 °C | 0.202 °C
EIF2S3 (UniProt P41091) | -0.997 °C | 0.0604 °C
RPL13A (UniProt P40429) | -0.855 °C | -1.58 °C
PPM1F (UniProt P49593) | 1.15 °C | 0.84 °C
LRPPRC (UniProt P42704) | -0.218 °C | -0.122 °C
SSR4 (UniProt P51571) | -2.25 °C | -1.3 °C
PRCP (UniProt P42785) | -2.91 °C | 0.549 °C
PIK3CB (UniProt P42338) | 1.15 °C | 0.867 °C
UniProt P38432 | -0.826 °C | -0.275 °C
SRP14 (UniProt P37108) | -2.56 °C | -0.574 °C
ME1 (UniProt P48163) | -1.8 °C | -1.97 °C
NSF (UniProt P46459) | 0.214 °C | -0.299 °C
HPCAL1 (UniProt P37235) | -2.06 °C | -1.63 °C
GYG1 (UniProt P46976) | -1.53 °C | 0.806 °C
MDH2 (UniProt P40926) | -0.889 °C | -0.354 °C
RPL34 (UniProt P49207) | -0.443 °C | -0.806 °C
UniProt P49750 | -0.519 °C | -0.436 °C
STAT3 (UniProt P40763) | -1.13 °C | -0.972 °C

Target | melting temperature shift (MBE1 concentration: 100 nM) | melting temperature shift (MBE1 concentration: 1 uM)
ALDH7A1 (UniProt P49419) | -0.255 °C | 0.516 °C
FEN1 (UniProt P39748) | -0.588 °C | -0.659 °C
TRAPPC10 (UniProt P48553) | 1.95 °C | 0.721 °C
CAP2 (UniProt P40123) | -0.0604 °C | 0.00611 °C
UniProt P48681 | -1.68 °C | -2.46 °C
ARCN1 (UniProt P48444) | -0.999 °C | -0.144 °C
DDOST (UniProt P39656) | -0.758 °C | 0.228 °C
PAPOLA (UniProt P51003) | 0.0977 °C | 0.104 °C
VASP (UniProt P50552) | 0.666 °C | -0.0733 °C
UniProt P41162 | -1.61 °C | -0.269 °C
DUSP3 (UniProt P51452) | 0.629 °C | -0.495 °C
RAB13 (UniProt P51153) | -1.07 °C | -0.188 °C
ARL1 (UniProt P40616) | -0.508 °C | 0.959 °C
IREB2 (UniProt P48200) | 0.485 °C | 0.0423 °C
DHPS (UniProt P49366) | -1.12 °C | -1 °C
SSR1 (UniProt P43307) | -0.827 °C | -1.31 °C
EMD (UniProt P50402) | 0.0244 °C | -0.281 °C
GDI2 (UniProt P50395) | -0.728 °C | 0.342 °C
UniProt P46734 | -0.0122 °C | -0.598 °C
RPS9 (UniProt P46781) | -0.0427 °C | 0.189 °C
CPT1A (UniProt P50416) | 0.208 °C | -0.134 °C
UniProt P42773 | -0.93 °C | -3.01 °C
MLH1 (UniProt P40692) | -0.506 °C | -0.115 °C
RPL35 (UniProt P42766) | -0.574 °C | -0.236 °C
RANGAP1 (UniProt P46060) | 0.165 °C | -0.316 °C
TALDO1 (UniProt P37837) | -0.376 °C | 0.0402 °C
POLD2 (UniProt P49005) | 0.458 °C | 0.379 °C

Target | melting temperature shift (MBE1 concentration: 100 nM) | melting temperature shift (MBE1 concentration: 1 uM)
PLA2G4A (UniProt P47712) | 0.25 °C | -0.208 °C
RFX5 (UniProt P48382) | 0.122 °C | 0.611 °C
UniProt P39880 | 0.806 °C | 0.244 °C
IARS (UniProt P41252) | -0.372 °C | -0.343 °C
CAPG (UniProt P40121) | 0.427 °C | -0.488 °C
UniProt P40855 | -4.16 °C | -2.81 °C
MTOR (UniProt P42345) | 0.574 °C | 0.128 °C
INPP1 (UniProt P49441) | -0.379 °C | 0.963 °C
HINT1 (UniProt P49773) | 0.879 °C | -2.53 °C
UniProt P48443 | -0.0961 °C | -0.455 °C
UniProt P43363 | -0.305 °C | -0.318 °C
CASP3 (UniProt P42574) | -4.39 °C | 1.72 °C
LMAN1 (UniProt P49257) | -0.677 °C | 0.805 °C
RFC5 (UniProt P40937) | 0.867 °C | 0.183 °C
DAP3 (UniProt P51398) | -1.82 °C | -2.7 °C
CAPZA2 (UniProt P47755) | -0.977 °C | 0.69 °C
MRE11A (UniProt P49959) | -1.81 °C | 1.18 °C
PRIM1 (UniProt P49642) | -1.15 °C | 0.0894 °C
UniProt P51161 | -2.07 °C | -0.818 °C
PSMD7 (UniProt P51665) | 0.382 °C | 0.419 °C
DNA2 (UniProt P51530) | -2.06 °C | 0.133 °C
UBE2A (UniProt P49459) | -0.382 °C | 0.704 °C
STAT6 (UniProt P42226) | -0.748 °C | -0.339 °C
PAFAH1B1 (UniProt P43034) | -0.953 °C | 0.0488 °C

Look-ups from above:
UniProt P40855 | melting temperature shift (MBE1 concentration: 100 nM): -4.16 °C
MTOR (UniProt P42345) | melting temperature shift (MBE1 concentration: 1 uM): 0.128 °C
DAP3 (UniProt P51398) | melting temperature shift (MBE1 concentration: 1 uM): -2.7 °C
IARS (UniProt P41252) | melting temperature shift (MBE1 concentration: 1 uM): -0.343 °C
